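Protease assay of ClpP1P2, read by the AMC dye that it sets free. Target: ClpP1P2, Mycobacterium tuberculosis (UniProt P9WPC5 and UniProt P9WPC3). Concentration: 50 µM. Direction is inferred from only a few compounds that gave an IC50; most scored high, so higher reads as stronger inhibition. Most other retested compounds had strongly negative values. About 69,000 compounds were tested under these conditions; 0.015% (about 10) showed 50% or more at least once.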

Chains of the proteins cited; added tags and fusions are not shown.
UniProt P9WPC5, whole entry: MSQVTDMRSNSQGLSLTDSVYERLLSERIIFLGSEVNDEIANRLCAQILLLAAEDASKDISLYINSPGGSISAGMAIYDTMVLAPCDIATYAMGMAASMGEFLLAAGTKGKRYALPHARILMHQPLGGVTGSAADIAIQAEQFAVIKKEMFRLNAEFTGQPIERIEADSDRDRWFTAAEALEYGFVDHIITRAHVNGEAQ
UniProt P9WPC3, whole entry partner: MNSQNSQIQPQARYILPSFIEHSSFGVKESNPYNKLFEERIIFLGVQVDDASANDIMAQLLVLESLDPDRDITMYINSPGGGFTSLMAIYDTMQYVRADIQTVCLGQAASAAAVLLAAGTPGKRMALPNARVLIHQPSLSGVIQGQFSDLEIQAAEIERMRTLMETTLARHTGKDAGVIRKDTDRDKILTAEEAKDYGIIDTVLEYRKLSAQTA

The filed quantity is “Percent Effect” (%).
The record does not define 0% and 100%; most values in the screen are far below 50% and negative numbers occur (in some assays of this library far below -100).
Compounds were drawn at random from those tested, without regard to their results.

structure	percent effect
Cn1cc(C(=O)NCc2cn3c(n2)CN(CC2CCOC2)CC3)cn1 (stereo not given)	-7.468%
CC(C)c1cc(NC(=O)Cn2cnc3ccccc3c2=O)[nH]n1	0.4832%
COc1ccc(/C=C/CN2CCCC3(C2)CN(C)C(=O)O3)cc1 (stereo not given)	-9.415%
CC(C)NC(=O)N1CCN(C(=O)N(C)C)CC2(CC(=O)N(C)C2)C1 (stereo not given)	11.69%
COc1c(F)cc(NC(=O)NCc2nncn2C2CC2)cc1F	-4.203%
Cc1cc(CNC(=O)NCCC(=O)N2CCCc3ccccc32)no1	-8.807%
Cc1noc([C@H]2CC[C@@H]3[C@@H](CCN3S(C)(=O)=O)O2)n1	4.025%
Clc1ccc(OCCNCCn2cccn2)cc1	6.586%
Cc1cc(CC(=O)N2CCN(CC3CC3)[C@@H]3CS(=O)(=O)C[C@@H]32)ccc1F	-8.127%
CCc1cnc(CN(C)C2CCN(CC(=O)Nc3cc(C)on3)C2)o1 (stereo not given)	0.4904%
Cc1ccn2cc(C(=O)N3CCCC3c3c(C)nn(C)c3C)nc2c1 (stereo not given)	2.165%
COc1ccc2nc3n(c2c1)[C@@H](CNC(=O)c1cncnc1)COC3	-12.79%
O=C(Cc1cccs1)N1CC[C@H]2[C@H]1CCN2Cc1cccnc1	6.009%
O=C1CC(NS(=O)(=O)c2ccc(F)c(Cl)c2)CN1 (stereo not given)	1.032%
CNc1ncc(CN(C)C(=O)c2ccccc2C2CCNC2)cn1 (stereo not given)	-0.9323%
Cc1ccsc1C(=O)N1CC[C@H]2CO[C@H](CN(C)C)[C@H]2C1	4.749%
CN(C)C(=O)CN1C[C@@H]2CC[C@H](C1)N(Cc1c(Cl)cncc1Cl)C2	-22.48%
CN(Cc1ccccc1)CC1CC2(CO1)CN(c1nncs1)C2 (stereo not given)	11.24%
CS(=O)(=O)CC(=O)N1C[C@H]2CCC[C@@]2(COCc2ccccn2)C1	6.174%
Cc1cc(N(C)Cc2ccsc2)n2nc(C)c(C)c2n1	-6.344%
O=C(c1ccoc1)N1CCCN(CC2CCOc3ccccc3C2)CC1 (stereo not given)	-6.37%
CCn1ccc(C(=O)N2CCCN(Cc3ccccc3F)CC2)cc1=O	7.488%
Cc1nc(CN2CCCC(Cn3cc(CCO)nn3)C2)c2ccccn12 (stereo not given)	-4.408%
Cc1ccc(NC(C(N)=O)c2ccc(F)cc2)cc1 (stereo not given)	-2.255%
COCCN(c1ccncc1)S(=O)(=O)c1cc(C)c(F)cc1F	7.355%
O=C(NCc1nn(-c2ccccc2)c2c1CCC2)N1CCSCC1	-3.376%
COCCNC(=O)N1CCN(C(=O)Cc2ccccc2F)CC1	-5.384%
COc1ccnc(N2CCN(C(=O)Cc3ccn(C(C)C)n3)CC2)n1	-37.85%
CNC(=O)[C@@H]1C[C@@H](NC(=O)Cc2nonc2C)CN1Cc1sccc1C	-16.74%
COc1cc(Cl)c(NC(=O)c2cc3c([nH]c2=O)CCCC3=O)cc1OC	-1.981%
CC(C)n1cnnc1CN(C)C(=O)C1CCCN(CC(N)=O)C1 (stereo not given)	13.52%
O=C1CC[C@H]2[C@H](CCN2C(=O)C2CCCO2)N1CCN1CCCC1 (stereo not given in full)	-3.706%
CN(CC1CCCCC1)C(=O)c1ccc(-n2ncc(C#N)c2N)cc1	-5.451%
CN(C)C(=O)CN1CCN(c2ncccn2)[C@@H]2CS(=O)(=O)C[C@@H]21	9.23%
Cc1cccc(C(=O)Oc2cc(=O)n3cccc(C)c3n2)c1	-7.386%
O=C1NCCCCC1NC(=O)C1(c2ccc3c(c2)OCCO3)CCCC1 (stereo not given)	-12.36%
Cc1cnn(CC2CCCN2Cc2nnc(C(C)C)o2)c1 (stereo not given)	15.28%
Cc1nn2cc(CCNC(=O)c3cc(C(C)C)no3)nc2s1	-0.3045%
O=C(c1cc(CC2(NC3CCCCC3)COC2)no1)N1CCCCC1	-7.225%
COCC1CN(C(=O)Cc2cccs2)Cc2nnn(CC3CC3)c21 (stereo not given)	-3.105%
COCCN(CC1CC1)c1nc(CCN)nc2ccccc12	-11.68%
CCC(O)CN1CCN(C(=O)c2ccn(C)c(=O)c2)CC1 (stereo not given)	3.963%
O=C([C@@H]1C[C@@H]2CCN(C3CCOCC3)C[C@@H]2O1)N1CCOCC1	-0.8233%
O=C(CCN1CCOCC1)N1CCC(Cc2ccc(CO)cc2)C1 (stereo not given)	-3.24%
CS(=O)(=O)N1C[C@H](C(=O)Nc2cccnc2)C[C@H]2OCC[C@H]21	8.656%
O=C(NC1CCCC1)O[C@H]1COCCN(c2nc3ccccc3s2)C1	-3.102%
CC(=O)NCC(=O)N1Cc2c(-c3cccc(C)c3)nc(N)nc2C1C (stereo not given)	12.38%
c1ccc(OCc2noc3c2CN(c2ncccn2)CC3)nc1	7.861%
COc1cccc(Nc2nc(N3CCCC3)nc3c2CNCC3)c1	-7.952%

Repeated from the top, 5 entries:

With Cn1cc(C(=O)NCc2cn3c(n2)CN(CC2CCOC2)CC3)cn1 (stereo not given) the screen gave -7.468%.
With CC(C)c1cc(NC(=O)Cn2cnc3ccccc3c2=O)[nH]n1 the screen gave 0.4832%.
With COc1ccc(/C=C/CN2CCCC3(C2)CN(C)C(=O)O3)cc1 (stereo not given) the screen gave -9.415%.
With CC(C)NC(=O)N1CCN(C(=O)N(C)C)CC2(CC(=O)N(C)C2)C1 (stereo not given) the screen gave 11.69%.
With COc1c(F)cc(NC(=O)NCc2nncn2C2CC2)cc1F the screen gave -4.203%.

The values are deposited in ChEMBL (CHEMBL3988442, “University of Dundee, Small-Polar-MMV Screening Library” (2021)).